Experimental data taken from PubChem BioAssay AID540276 (National Center for Advancing Translational Sciences (NCATS), 2011).
About 5,400 (1.8%) of roughly 300,000 compounds were called active. The inconclusive results got no clear call from the source; some entries with a clear call stand among them for comparison. Calls follow the shape of the full dose curve; tested in HEK293 cells. Potencies beside an inconclusive call are fits to weak or partial responses and may not hold up.

Test: qHTS for inhibitors of binding or entry into cells for Marburg Virus
Conditions: Marburg virus pseudotyped entry inhibition, cell reporter; series mostly up to 37.8 µM
Potency is read from the fitted curve at half-maximal effect.

SMILES	Potency
CCn1c(SCc2cccc(OC)c2)nc2ccccc2c1=O	inconclusive: 10 µM [inhibitor, partial curve, poor fit]
Cc1cccc(C(=O)OCC(=O)NC(C)CCc2ccccc2)c1 (stereo not drawn)	inactive
CCc1ccc(-c2ccc(C(=O)O)c(C)n2)cc1	inconclusive: 0.708 µM [activator, single point]
Cc1ccc(Nc2ncnc(Cl)c2N)cc1	inconclusive: 20 µM [inhibitor, single point]
O=C(COC(=O)c1ccc[n+]([O-])c1)Nc1ccc(Cl)cc1[N+](=O)[O-]	inactive
COc1cc(S(=O)(=O)NCc2ccncc2)ccc1Br	inconclusive: 0.447 µM [inhibitor, full curve, poor fit]
CCN(CC)CCCNC(=S)N(Cc1cccs1)Cc1cc2cc3c(cc2[nH]c1=O)OCCO3	inconclusive: 11.2 µM [inhibitor, partial curve, poor fit]
C/C(=N\N1C(=O)c2ccccc2NC1c1ccco1)c1ccccc1O (stereo not drawn)	active: 8.2 µM
COc1c(C(=O)NNC(=O)c2ccccc2Cl)csc1Br	inconclusive: 5.62 µM [activator, single point]
COc1ccc(CCNC(=O)c2n[nH]c(=O)c3ccccc23)cc1	inactive
Cc1cc(C(=O)CC#N)c(C)n1CC(F)(F)F	inconclusive: 0.251 µM [activator, full curve, poor fit]
COc1ccc(C(=O)N2CCC(O)(c3ccc(F)cc3)CC2)cc1OC	inactive
Cc1cccc(Nc2nc(N)nc(CCl)n2)c1	inconclusive: 0.794 µM [inhibitor, full curve]
COc1cc(CNC(=O)c2cc3ccccc3oc2=O)cc(OC)c1OC	inactive
COc1cccc(N(CC(=O)NC2CCCCC2)C(=O)CCCC(=O)Nc2ccccn2)c1	inconclusive: 12.6 µM [inhibitor, partial curve, poor fit]
CCOC(=O)N1CCC2(CC1)C(C#N)=C(N)OC1=C2C(=O)CCC1	inactive
COCCNC(=O)C(c1ccc(F)cc1)N(C(=O)CCC(=O)Nc1nccs1)c1cccc(C)c1 (stereo not drawn)	inconclusive: 10 µM [inhibitor, partial curve, poor fit]
O=C(CC1C(=O)NCCN1CC1CCCCC1)NCc1ccccc1Cl (stereo not drawn)	inconclusive: 28.2 µM [inhibitor, single point]
Cc1ccc(C(=O)CCC(=O)NC2CCCC(C)C2C)cc1 (stereo not drawn)	inconclusive: 6.31 µM [inhibitor, single point]
COc1ccc(C(=O)NNC(=S)NC(=O)c2ccccc2)cc1	inconclusive: 22.4 µM [inhibitor, single point]
Cc1ccc(N2CC(O)(c3cccs3)[N+]3=C2CCCC3)cc1 (stereo not drawn)	inconclusive: 35.5 µM [inhibitor, single point]
Cc1ccc(NC(=O)c2cc(-c3cccs3)on2)cc1C	inconclusive: 7.08 µM [activator, partial curve, poor fit]
CC(C)(C)c1nnc2sc(SCC(=O)c3ccc4c(c3)OCCO4)nn2c1=O	inconclusive: 0.282 µM [inhibitor, full curve, poor fit]

SMILES	Potency
CCCn1c(SC(C)C(=O)NCC2CCCO2)nc2sc3c(c2c1=O)CCC3 (stereo not drawn)	inactive
COC(=O)c1cc2occc2n1CC(=O)Nc1ccc(C)cc1C	inactive
Cc1ccc(-c2nc3ccccc3[nH]2)cc1N	inconclusive: 18.3 µM [inhibitor, single point]
CCOC(=O)c1[nH]c2ccccc2c1NC(=O)c1ccc(OCC)cc1	inconclusive: 35.5 µM [activator, single point]
Cc1ccc(Cl)cc1N1CCN(C(=O)COc2ccc3c(c2)CCC3)CC1	inconclusive: 35.5 µM [inhibitor, partial curve, poor fit]
OC(COC(c1ccccc1)c1ccccc1)CN1CCN(c2cccc(Cl)c2)CC1 (stereo not drawn)	inconclusive: 35.5 µM [inhibitor, single point]
CC(C)=CC(=O)Nc1nnc(C(C)C)s1	inconclusive: 3.16 µM [activator, partial curve, poor fit]
COc1cc2c(cc1NC(=O)CSc1ccccc1)oc1ccccc12	inactive
O=C(C1CCN(C2CCN(Cc3ccc4c(c3)CCO4)CC2)CC1)N1CCOCC1	inconclusive: 35.5 µM [inhibitor, single point]
CCOC(=O)c1ccccc1NC(=O)c1cccs1	inactive
Cc1ccc(CSc2nnc(-c3cccc(S(=O)(=O)N4CCOCC4)c3)n2C2CCCC2)cc1	inconclusive: 14.6 µM [inhibitor, partial curve, poor fit]
COCCN(C(=O)Cc1cccs1)C(C(=O)NCc1ccc(OC)cc1)c1ccc(C)cc1 (stereo not drawn)	inconclusive: 4.11 µM [inhibitor, partial curve, poor fit]
CC(CC(=O)Nc1cc(C(F)(F)F)ccc1Cl)c1ccccc1 (stereo not drawn)	inconclusive: 3.16 µM [activator, partial curve, poor fit]
Cc1ccc(-n2nc3ccc(NC(=O)/C=C/c4ccco4)cc3n2)cc1	inactive
CCOc1ccc(CN(C)C(C)C(=O)Nc2ccc([N+](=O)[O-])cc2Cl)cc1OC (stereo not drawn)	inconclusive: 35.5 µM [activator, single point]
Cc1cccc2cc(C#N)c(NCCNS(=O)(=O)c3ccccc3)nc12	inconclusive: 35.5 µM [inhibitor, single point]
O=C(CCc1c[nH]c2ccccc12)NCC1COc2ccccc2O1 (stereo not drawn)	inconclusive: 1.26 µM [inhibitor, single point]
CC(=O)Nc1nnc(CSCc2ccccc2F)s1	inconclusive: 12.6 µM [activator, partial curve, poor fit]
Nn1c(Cc2cccc3ccccc23)nnc1SCc1ccc(Cl)c(Cl)c1	inconclusive: 29.1 µM [inhibitor, single point]
COc1ccc(S(=O)(=O)N2CCOCC2)cc1NC(=O)[C@@H]1CCCN1C(=O)c1cccs1	inconclusive: 35.5 µM [inhibitor, single point]
Cc1ccccc1OCCC(=O)OCC(=O)c1c(N)n(CC(C)C)c(=O)n(C)c1=O	inconclusive: 35.5 µM [activator, single point]
CC(=O)c1ccc(NC(=O)c2ccccc2-c2ccccc2C(=O)O)cc1	inactive
O=C(CNC(=O)C1COc2ccccc2O1)N/N=C/c1ccc(O)cc1O (stereo not drawn)	inconclusive: 10 µM [inhibitor, partial curve, poor fit]

Another view of part of the listing above.
SMILES | Potency
COc1ccc(CCNC(=O)c2n[nH]c(=O)c3ccccc23)cc1 | inactive
Cc1ccc(C(=O)CCC(=O)NC2CCCC(C)C2C)cc1 (stereo not drawn) | inconclusive: 6.31 µM [inhibitor, single point]
CCOC(=O)c1[nH]c2ccccc2c1NC(=O)c1ccc(OCC)cc1 | inconclusive: 35.5 µM [activator, single point]
O=C(CCc1c[nH]c2ccccc12)NCC1COc2ccccc2O1 (stereo not drawn) | inconclusive: 1.26 µM [inhibitor, single point]
CC(=O)Nc1nnc(CSCc2ccccc2F)s1 | inconclusive: 12.6 µM [activator, partial curve, poor fit]

Next compounds follow:

SMILES	Potency
O=C(Nc1ccc([N+](=O)[O-])cc1)Nc1nc(-c2ccc(Cl)s2)cs1	inconclusive: 3.98 µM [inhibitor, full curve, poor fit]
O=C(c1ccoc1)N1CCCC(Nc2ccc(F)c(F)c2)C1 (stereo not drawn)	inactive
Cc1ccc(O)c(/C=N/NC(=O)COc2ccc3c(C)cc(=O)oc3c2)c1	inconclusive: 35.5 µM [inhibitor, single point]
CC(=N\NC(=O)c1ccccc1)/C(=N/O)C(=O)Nc1ccccc1	inactive
OC(COc1ccc2c(c1)CCC2)Cn1cnc2ccccc21 (stereo not drawn)	inconclusive: 35.5 µM [inhibitor, single point]
C/C=C/c1ccc(OCCCCN2CC(C)CC(C)C2)c(OC)c1 (stereo not drawn)	inconclusive: 14.1 µM [inhibitor, partial curve, poor fit]
COc1ccc(OC)c(NC(=O)c2sc3nc(Cc4ccccc4)cc(C(F)(F)F)c3c2N)c1	inactive
CCc1c(C(=O)N/N=C/c2ccc(C)o2)csc1C	inactive
O=C(c1cc2sccc2n1Cc1ccccc1)N1CCN(c2nc3ccccc3s2)CC1	inconclusive: 17.8 µM [inhibitor, partial curve, poor fit]
Cc1ccc(OCC(=O)N(Cc2ccco2)c2ccccn2)cc1	inactive
Cc1[nH]c2ccccc2c1C(=O)C(=O)N1CCCc2ccccc21	inconclusive: 0.562 µM [inhibitor, full curve, poor fit]
CC1CCCCN1CC(O)COCCC12CC3CC(CC(C3)C1)C2 (stereo not drawn)	inconclusive: 2.24 µM [inhibitor, partial curve, poor fit]
COc1ccc(S(=O)(=O)NCc2csc(C)n2)cc1	inconclusive: 3.55 µM [activator, single point]
c1cc(Nc2cccc3nccnc23)c2nccnc2c1	inconclusive: 3.98 µM [inhibitor, partial curve, poor fit]
CCNC(=S)NNC(=O)c1ccc(S(=O)(=O)NCc2ccco2)cc1	inconclusive: 8.91 µM [inhibitor, partial curve, poor fit]
c1ccc(-c2cc(CSc3nc4ccccc4[nH]3)on2)cc1	inconclusive: 14.1 µM [inhibitor, partial curve, poor fit]
Cn1c(NCCCO)nc2c(c1=O)C1(CCCCC1)Cc1ccccc1-2	inconclusive: 12.6 µM [inhibitor, single point]
Cc1ccc(C2=CSC3=NS(=O)(=O)CCN23)cc1C	inconclusive: 3.66 µM [activator, single point]
COC(=O)c1ccc2c(c1)NC1=C(C(=O)CC(C)(C)C1)C(c1ccncc1)N2 (stereo not drawn)	inconclusive: 0.206 µM [activator, full curve, poor fit]
Cn1c(-c2ccccc2)c[n+]2c1CCCCC2	inconclusive: 35.5 µM [activator, single point]
CC(=O)CSc1ncnc2sc3c(c12)CCC3	inactive
O=S(=O)(c1ccc(SCc2ccc(Br)cc2)nc1)N1CCOCC1	inconclusive: 35.5 µM [inhibitor, single point]
